Results deposited as PubChem BioAssay AID1259308 (NCATS, 2017)
This is one part, drawn at random, of about 59,000 deposited reagents. Over the whole deposit, about 1,510 (2.6%) are marked active. 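Calls use total luciferase alone and ignore viability, so some active siRNAs may act by altering cell number.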 Reagents against one gene are numbered here. Not all columns of the deposit are shown.

- Screen: 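Candidate targets for better recombinant protein yield in mammalian cells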 (primary screen)
- Cell system: human HEK293 embryonic kidney cells stably expressing firefly luciferase (HEK-CMV-Luc2-Hygro)
- Reagents: single siRNA against human genes, 0.8 pmol siRNA per well
- Timing: 72 h
- Measurement: 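Luciferase light (ONE-Glo) measured on one replicate plate set and viability (CellTiter-Glo) on the other, scaled to a negative control siRNA, with robust z-scores and luciferase per cell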
- Reading the numbers: total luciferase, z-score and total luciferase, % of control: higher = more reporter protein produced; luciferase per cell, z-score: higher = more reporter output per viable cell
- Active means: 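Active when the median/MAD z-score for overall luciferase is greater than 3; a gene was taken forward for validation with new siRNAs if at least two of its three siRNAs passed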
- Meaning of the calls: active = raised luciferase; inactive = no rise

| gene symbol | siRNA no. | total luciferase, z-score | total luciferase, % of control | luciferase per cell, z-score | Call |
| --- | --- | --- | --- | --- | --- |
| MYOCD (myocardin) | 1 | -1.48 | 52.4 | -0.683 | inactive |
| MYOCD (myocardin) | 2 | 0.533 | 92.5 | 0.52 | inactive |
| MYOCD (myocardin) | 3 | -0.569 | 70.6 | 0.137 | inactive |
| OR10K1 (olfactory receptor family 10 subfamily K member 1) | 1 | 1.29 | 108 | 0.476 | inactive |
| OR10K1 (olfactory receptor family 10 subfamily K member 1) | 2 | 0.181 | 85.5 | 1.17 | inactive |
| OR10K1 (olfactory receptor family 10 subfamily K member 1) | 3 | 0.486 | 91.6 | 0.589 | inactive |
| KCNS1 | 1 | -1.5 | 52 | -1.9 | inactive |
| KCNS1 | 2 | 2.73 | 136 | 2.86 | inactive |
| KCNS1 | 3 | -0.209 | 77.7 | -0.475 | inactive |
| APOA5 (apolipoprotein A5) | 1 | -1.29 | 56.2 | -1.7 | inactive |
| APOA5 (apolipoprotein A5) | 2 | -0.785 | 66.3 | 0.402 | inactive |
| APOA5 (apolipoprotein A5) | 3 | 0.0618 | 83.1 | 0.114 | inactive |
| PRSS36 (serine protease 36) | 1 | -1.82 | 45.7 | -2.94 | inactive |
| PRSS36 (serine protease 36) | 2 | 1.61 | 114 | 0.875 | inactive |
| PRSS36 (serine protease 36) | 3 | -0.399 | 73.9 | -1.45 | inactive |
| EXOC5P1 (exocyst complex component 5 pseudogene 1) | 1 | 0.76 | 97 | 1.44 | inactive |
| EXOC5P1 (exocyst complex component 5 pseudogene 1) | 2 | -0.199 | 77.9 | -0.0616 | inactive |
| EXOC5P1 (exocyst complex component 5 pseudogene 1) | 3 | -2.21 | 38 | -1.78 | inactive |
| DOCK9 (dedicator of cytokinesis 9) | 1 | 0.364 | 89.1 | 0.105 | inactive |
| DOCK9 (dedicator of cytokinesis 9) | 2 | -0.239 | 77.1 | -0.0636 | inactive |
| DOCK9 (dedicator of cytokinesis 9) | 3 | 1.83 | 118 | 0.997 | inactive |
| SLC7A6OS | 1 | -1.62 | 49.6 | -1.15 | inactive |
| SLC7A6OS | 2 | -1.04 | 61.1 | -0.0371 | inactive |
| SLC7A6OS | 3 | -0.893 | 64.1 | -0.194 | inactive |
| GFRA4 (GDNF family receptor alpha 4) | 1 | -1.18 | 58.4 | -1 | inactive |
| GFRA4 (GDNF family receptor alpha 4) | 2 | -0.797 | 66 | 0.0101 | inactive |
| GFRA4 (GDNF family receptor alpha 4) | 3 | 4.91 | 180 | 2.63 | active |
| IRF2BP2 (interferon regulatory factor 2 binding protein 2) | 1 | 0.831 | 98.4 | 1.35 | inactive |
| IRF2BP2 (interferon regulatory factor 2 binding protein 2) | 2 | 0.473 | 91.3 | 0.324 | inactive |
| IRF2BP2 (interferon regulatory factor 2 binding protein 2) | 3 | 2.18 | 125 | 1.6 | inactive |
| ZNF419 (zinc finger protein 419) | 1 | 1.29 | 108 | 1.03 | inactive |
| ZNF419 (zinc finger protein 419) | 2 | -0.388 | 74.2 | 0.01 | inactive |
| ZNF419 (zinc finger protein 419) | 3 | -0.166 | 78.6 | 0.123 | inactive |
| DOCK2 (dedicator of cytokinesis 2) | 1 | 0.089 | 83.7 | 0.663 | inactive |
| DOCK2 (dedicator of cytokinesis 2) | 2 | -0.554 | 70.9 | -0.562 | inactive |
| DOCK2 (dedicator of cytokinesis 2) | 3 | 0.262 | 87.1 | -0.707 | inactive |
| GAA (alpha glucosidase) | 1 | 0.0598 | 83.1 | 0.302 | inactive |
| GAA (alpha glucosidase) | 2 | 0.56 | 93 | 0.945 | inactive |
| GAA (alpha glucosidase) | 3 | -1.98 | 42.5 | -1.67 | inactive |

Limited to “total luciferase, z-score” (2 entries from above):
GFRA4 (GDNF family receptor alpha 4) #2	-0.797
GFRA4 (GDNF family receptor alpha 4) #3	4.91
